Source: the supplement of paper PMC6411743
± gives the standard deviation of the averaged measurements. This is a selection; strong and weak results do not stand in their true shares.

By UniProt entry, the sequences of proteins in these tests, tags left out. Where a name states a change or a piece, a line headed by the entry shows the natural chain unless it says otherwise.
UniProt Q9C0B5: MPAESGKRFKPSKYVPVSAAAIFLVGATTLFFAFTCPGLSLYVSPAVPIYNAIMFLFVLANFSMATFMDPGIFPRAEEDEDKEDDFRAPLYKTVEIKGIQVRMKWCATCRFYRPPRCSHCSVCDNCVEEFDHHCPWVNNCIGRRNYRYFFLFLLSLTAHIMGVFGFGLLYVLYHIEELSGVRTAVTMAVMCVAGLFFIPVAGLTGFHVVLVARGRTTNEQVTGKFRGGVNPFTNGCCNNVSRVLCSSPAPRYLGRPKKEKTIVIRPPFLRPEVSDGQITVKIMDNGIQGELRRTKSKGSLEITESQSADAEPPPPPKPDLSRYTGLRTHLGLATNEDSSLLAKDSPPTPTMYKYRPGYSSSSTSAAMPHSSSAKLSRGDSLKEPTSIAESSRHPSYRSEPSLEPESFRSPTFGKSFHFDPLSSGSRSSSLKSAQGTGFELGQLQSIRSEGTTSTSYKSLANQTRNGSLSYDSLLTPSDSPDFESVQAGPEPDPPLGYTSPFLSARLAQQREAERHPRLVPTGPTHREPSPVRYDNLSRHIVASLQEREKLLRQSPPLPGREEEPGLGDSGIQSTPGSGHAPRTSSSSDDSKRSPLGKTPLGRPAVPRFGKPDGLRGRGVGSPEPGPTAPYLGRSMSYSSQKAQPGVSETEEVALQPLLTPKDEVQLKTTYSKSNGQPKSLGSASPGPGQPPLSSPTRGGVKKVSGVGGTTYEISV
UniProt Q9H3K6: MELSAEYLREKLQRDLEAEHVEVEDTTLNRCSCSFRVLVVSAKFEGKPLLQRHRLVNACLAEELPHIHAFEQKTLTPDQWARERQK
UniProt Q9NP72: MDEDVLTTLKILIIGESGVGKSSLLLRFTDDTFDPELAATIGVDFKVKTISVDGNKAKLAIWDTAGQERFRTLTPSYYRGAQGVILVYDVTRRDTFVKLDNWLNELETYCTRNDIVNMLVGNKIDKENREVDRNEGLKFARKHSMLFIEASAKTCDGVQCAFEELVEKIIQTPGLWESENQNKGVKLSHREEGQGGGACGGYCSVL
UniProt Q9GZQ3, whole entry: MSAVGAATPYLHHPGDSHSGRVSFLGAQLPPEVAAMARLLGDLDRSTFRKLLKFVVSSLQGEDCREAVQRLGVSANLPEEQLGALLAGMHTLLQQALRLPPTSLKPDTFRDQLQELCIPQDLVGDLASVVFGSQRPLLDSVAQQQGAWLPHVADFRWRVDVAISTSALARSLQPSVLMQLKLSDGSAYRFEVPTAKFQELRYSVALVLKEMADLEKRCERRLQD
UniProt Q9HD34: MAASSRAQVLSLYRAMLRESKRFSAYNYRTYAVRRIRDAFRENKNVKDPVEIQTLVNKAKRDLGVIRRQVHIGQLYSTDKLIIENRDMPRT
UniProt Q9HA47: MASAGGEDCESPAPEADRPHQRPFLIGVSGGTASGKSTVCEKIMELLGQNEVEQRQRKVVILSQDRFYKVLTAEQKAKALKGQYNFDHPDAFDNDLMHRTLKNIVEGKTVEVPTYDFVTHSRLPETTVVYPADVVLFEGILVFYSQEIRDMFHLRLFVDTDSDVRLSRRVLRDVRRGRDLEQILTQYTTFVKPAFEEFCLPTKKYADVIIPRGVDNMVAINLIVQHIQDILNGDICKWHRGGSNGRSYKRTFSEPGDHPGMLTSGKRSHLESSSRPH
UniProt Q9HCE1: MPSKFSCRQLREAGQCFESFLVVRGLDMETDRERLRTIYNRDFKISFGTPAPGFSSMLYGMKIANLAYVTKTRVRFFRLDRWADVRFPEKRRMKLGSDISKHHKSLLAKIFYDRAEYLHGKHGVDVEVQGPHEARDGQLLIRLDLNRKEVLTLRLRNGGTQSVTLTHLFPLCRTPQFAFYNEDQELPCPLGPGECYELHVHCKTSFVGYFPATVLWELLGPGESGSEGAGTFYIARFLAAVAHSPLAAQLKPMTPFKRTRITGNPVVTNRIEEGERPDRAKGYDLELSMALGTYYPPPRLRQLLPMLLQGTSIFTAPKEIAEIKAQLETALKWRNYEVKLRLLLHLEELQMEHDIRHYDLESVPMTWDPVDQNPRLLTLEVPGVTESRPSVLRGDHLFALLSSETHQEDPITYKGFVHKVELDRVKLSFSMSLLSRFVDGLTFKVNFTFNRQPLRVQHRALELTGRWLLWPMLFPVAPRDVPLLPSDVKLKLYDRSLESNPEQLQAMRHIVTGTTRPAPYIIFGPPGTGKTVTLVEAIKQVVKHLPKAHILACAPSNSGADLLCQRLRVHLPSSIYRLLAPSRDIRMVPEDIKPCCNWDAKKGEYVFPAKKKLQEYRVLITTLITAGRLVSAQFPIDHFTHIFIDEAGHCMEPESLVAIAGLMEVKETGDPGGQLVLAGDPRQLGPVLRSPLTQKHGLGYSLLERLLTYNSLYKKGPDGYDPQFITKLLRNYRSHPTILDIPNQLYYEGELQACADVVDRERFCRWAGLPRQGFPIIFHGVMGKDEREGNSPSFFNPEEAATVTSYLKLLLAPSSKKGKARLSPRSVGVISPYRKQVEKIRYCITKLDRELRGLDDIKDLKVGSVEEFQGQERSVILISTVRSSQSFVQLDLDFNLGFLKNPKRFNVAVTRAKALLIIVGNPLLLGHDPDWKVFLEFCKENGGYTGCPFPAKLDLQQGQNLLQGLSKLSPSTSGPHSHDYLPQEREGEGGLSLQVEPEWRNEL
UniProt Q9H0V9: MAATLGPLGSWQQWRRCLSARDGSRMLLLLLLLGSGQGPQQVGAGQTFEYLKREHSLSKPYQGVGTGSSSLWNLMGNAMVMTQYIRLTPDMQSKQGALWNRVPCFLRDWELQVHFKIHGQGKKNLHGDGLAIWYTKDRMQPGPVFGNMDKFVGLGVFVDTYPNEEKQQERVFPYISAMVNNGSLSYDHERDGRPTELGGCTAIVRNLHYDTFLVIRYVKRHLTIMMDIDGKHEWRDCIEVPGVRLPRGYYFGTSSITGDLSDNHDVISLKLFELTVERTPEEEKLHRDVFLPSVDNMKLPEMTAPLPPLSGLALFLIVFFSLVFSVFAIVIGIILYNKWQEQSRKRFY
UniProt Q9HBL8: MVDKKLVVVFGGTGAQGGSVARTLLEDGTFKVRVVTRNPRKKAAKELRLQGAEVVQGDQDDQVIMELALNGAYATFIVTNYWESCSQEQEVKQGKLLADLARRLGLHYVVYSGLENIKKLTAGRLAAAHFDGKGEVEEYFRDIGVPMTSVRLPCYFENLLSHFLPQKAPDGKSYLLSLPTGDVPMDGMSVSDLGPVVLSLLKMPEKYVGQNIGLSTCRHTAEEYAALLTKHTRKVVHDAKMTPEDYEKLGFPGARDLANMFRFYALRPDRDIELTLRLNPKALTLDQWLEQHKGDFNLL
UniProt Q9C0C2: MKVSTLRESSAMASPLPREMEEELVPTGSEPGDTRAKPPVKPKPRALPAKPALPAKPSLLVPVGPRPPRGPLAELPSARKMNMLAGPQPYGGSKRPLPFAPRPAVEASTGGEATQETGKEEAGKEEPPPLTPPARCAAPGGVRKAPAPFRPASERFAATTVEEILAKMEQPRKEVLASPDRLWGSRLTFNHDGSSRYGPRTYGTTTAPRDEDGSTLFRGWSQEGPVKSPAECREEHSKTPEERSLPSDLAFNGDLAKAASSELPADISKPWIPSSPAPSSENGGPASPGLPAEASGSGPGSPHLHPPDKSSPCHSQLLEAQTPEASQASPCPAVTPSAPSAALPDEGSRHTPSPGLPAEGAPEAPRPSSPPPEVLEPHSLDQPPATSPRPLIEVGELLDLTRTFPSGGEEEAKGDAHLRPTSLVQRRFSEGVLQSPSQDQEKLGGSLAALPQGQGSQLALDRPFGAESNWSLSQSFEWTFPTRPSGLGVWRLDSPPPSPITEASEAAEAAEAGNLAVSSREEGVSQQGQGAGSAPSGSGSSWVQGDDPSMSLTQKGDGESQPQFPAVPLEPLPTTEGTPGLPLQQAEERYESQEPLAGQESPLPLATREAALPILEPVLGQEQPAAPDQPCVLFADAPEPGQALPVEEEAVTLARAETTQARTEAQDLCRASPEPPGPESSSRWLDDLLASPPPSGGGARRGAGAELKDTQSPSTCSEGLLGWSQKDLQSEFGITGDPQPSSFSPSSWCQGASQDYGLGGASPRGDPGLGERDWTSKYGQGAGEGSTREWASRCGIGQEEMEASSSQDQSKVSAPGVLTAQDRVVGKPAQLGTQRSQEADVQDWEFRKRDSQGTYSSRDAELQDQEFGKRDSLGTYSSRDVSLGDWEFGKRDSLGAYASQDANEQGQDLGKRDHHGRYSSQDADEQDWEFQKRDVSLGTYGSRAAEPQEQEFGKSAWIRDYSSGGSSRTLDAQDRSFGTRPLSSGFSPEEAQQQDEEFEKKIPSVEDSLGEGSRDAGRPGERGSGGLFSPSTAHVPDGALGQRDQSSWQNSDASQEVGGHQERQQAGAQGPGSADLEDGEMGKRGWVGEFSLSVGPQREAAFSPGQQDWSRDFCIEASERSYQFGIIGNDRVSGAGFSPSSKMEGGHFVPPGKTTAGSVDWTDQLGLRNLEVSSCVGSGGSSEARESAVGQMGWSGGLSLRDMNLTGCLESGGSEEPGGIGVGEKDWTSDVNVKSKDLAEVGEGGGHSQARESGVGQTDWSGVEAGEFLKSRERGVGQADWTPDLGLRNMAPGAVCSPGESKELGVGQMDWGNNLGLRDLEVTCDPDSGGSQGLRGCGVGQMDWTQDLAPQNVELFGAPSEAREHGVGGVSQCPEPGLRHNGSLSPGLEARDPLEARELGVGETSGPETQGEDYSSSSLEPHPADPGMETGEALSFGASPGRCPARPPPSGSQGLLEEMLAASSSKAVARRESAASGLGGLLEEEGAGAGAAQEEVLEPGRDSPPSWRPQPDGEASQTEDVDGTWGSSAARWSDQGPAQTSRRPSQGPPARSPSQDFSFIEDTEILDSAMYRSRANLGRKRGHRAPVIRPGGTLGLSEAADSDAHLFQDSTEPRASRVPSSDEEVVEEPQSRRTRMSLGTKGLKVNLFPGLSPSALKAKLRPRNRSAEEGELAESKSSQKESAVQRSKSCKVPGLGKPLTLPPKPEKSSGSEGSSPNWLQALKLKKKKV
UniProt Q9HD47: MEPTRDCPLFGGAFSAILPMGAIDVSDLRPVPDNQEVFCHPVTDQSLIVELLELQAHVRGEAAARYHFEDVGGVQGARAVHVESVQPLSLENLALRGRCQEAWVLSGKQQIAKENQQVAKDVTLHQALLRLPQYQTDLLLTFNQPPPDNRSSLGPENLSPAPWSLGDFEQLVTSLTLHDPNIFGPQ
UniProt Q9HAB8: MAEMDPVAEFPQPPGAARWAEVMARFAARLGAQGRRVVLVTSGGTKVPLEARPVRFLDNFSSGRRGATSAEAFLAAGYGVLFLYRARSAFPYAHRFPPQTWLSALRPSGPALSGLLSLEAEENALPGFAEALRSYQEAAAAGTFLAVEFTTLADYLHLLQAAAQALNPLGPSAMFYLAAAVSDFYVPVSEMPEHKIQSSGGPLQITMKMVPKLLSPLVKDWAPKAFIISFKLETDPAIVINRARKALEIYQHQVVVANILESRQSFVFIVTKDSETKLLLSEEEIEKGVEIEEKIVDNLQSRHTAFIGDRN
UniProt Q9H7H0: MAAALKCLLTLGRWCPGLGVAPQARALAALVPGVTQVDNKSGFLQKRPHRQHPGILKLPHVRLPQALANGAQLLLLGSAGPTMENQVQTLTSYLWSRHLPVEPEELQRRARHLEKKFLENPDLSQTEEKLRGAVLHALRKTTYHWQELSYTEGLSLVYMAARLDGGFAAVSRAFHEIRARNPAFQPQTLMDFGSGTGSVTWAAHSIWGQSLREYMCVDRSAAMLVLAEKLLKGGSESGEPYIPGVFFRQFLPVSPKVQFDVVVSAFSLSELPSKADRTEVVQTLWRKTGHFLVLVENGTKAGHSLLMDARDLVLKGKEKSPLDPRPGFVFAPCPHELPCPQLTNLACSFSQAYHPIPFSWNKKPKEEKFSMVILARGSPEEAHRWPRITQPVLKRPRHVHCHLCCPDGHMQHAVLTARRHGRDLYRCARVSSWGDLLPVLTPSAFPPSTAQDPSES
UniProt Q9H4A4: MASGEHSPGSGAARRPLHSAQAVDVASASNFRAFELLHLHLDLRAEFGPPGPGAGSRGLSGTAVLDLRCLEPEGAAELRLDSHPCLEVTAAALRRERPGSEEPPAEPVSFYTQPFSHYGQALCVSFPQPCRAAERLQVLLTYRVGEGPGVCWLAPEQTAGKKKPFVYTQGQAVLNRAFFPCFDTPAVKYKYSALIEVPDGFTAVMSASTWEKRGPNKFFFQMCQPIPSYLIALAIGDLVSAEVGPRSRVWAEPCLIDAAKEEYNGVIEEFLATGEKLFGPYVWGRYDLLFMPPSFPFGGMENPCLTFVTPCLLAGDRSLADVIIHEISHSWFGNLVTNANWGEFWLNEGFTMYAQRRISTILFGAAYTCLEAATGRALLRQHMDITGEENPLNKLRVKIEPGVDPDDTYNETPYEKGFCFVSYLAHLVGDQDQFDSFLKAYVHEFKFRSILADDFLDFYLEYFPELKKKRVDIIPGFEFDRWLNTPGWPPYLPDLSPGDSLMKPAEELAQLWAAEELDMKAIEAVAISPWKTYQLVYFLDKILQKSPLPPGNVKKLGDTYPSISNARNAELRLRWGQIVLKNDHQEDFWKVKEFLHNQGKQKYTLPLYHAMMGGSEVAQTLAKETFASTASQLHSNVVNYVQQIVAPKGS

Compound: Nc1ncnc2c1ncn2[C@@H]1O[C@H](COP(=O)(O)OP(=O)(O)OP(=O)(O)O)[C@@H](O)[C@H]1O [adenosine triphosphate]
Test: NP40-soluble protein abundance relative to vehicle (solubility fold change) (ratio); higher = more soluble protein in presence of ATP
Method in brief: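 Values are fold changes against the detergent-processed vehicle, based on vsn-normalised intensities. Jurkat crude lysate was treated at eight concentrations from 0.1 to 10 mM (10 min at room temperature, then 3 min at 37 °C), solubilised with 0.8% NP40 and benzonase, ultracentrifuged and analysed by TMT-labelled LC-MS/MS over three independent experiments.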

Target | NP40-soluble protein abundance (concentration: 1mM) | NP40-soluble protein abundance (concentration: 2mM) | NP40-soluble protein abundance (concentration: 4mM) | NP40-soluble protein abundance (concentration: 6mM) | NP40-soluble protein abundance (concentration: 8mM) | NP40-soluble protein abundance (concentration: 10mM)
UniProt Q9C0B5 and related entries | 0.835 ± 0.04 | 0.887 ± 0.023 | 0.851 ± 0.041 | 0.848 ± 0.036 | 0.817 ± 0.032 | 0.823 ± 0.035
BOLA2 (UniProt Q9H3K6) | 0.878 ± 0.1 | 0.91 ± 0.024 | 0.868 ± 0.062 | 0.925 ± 0.042 | 0.872 ± 0.011 | 0.866 ± 0.048
CENPH (UniProt Q9H3R5) | 0.992 ± 0.12 | 0.968 ± 0.065 | 1.01 ± 0.069 | 1.03 ± 0.077 | 1.03 ± 0.048 | 0.937 ± 0.17
UniProt Q9HA65 and related entries | 0.978 ± 0.015 | 0.9913 ± 0.0066 | 0.9245 ± 0.0085 | 0.979 ± 0.015 | 0.913 ± 0.043 | 0.898 ± 0.077
UniProt Q9HCE0 and related entries | 1.04 ± 0.09 | 0.953 ± 0.074 | 1.06 ± 0.019 | 0.984 ± 0.05 | 1.02 ± 0.064 | 0.986 ± 0.12
UniProt Q9NP72 and related entries | 0.99 ± 0.047 | 1.01 ± 0.047 | 0.973 ± 0.04 | 0.952 ± 0.094 | 0.981 ± 0.044 | 0.974 ± 0.06
COMMD5 (UniProt Q9GZQ3) | 0.864 ± 0.016 | 0.865 ± 0.03 | 0.8766 ± 0.0064 | 0.758 ± 0.082 | 0.902 ± 0.052 | 0.819 ± 0.063
UniProt Q9H9A5 and related entries | 1.11 ± 0.045 | 1.15 ± 0.025 | 1.22 ± 0.051 | 1.19 ± 0.069 | 1.23 ± 0.028 | 1.3 ± 0.062
LYRM4 (UniProt Q9HD34) | 0.959 ± 0.071 | 0.948 ± 0.079 | 0.929 ± 0.053 | 0.98 ± 0.09 | 0.933 ± 0.041 | 0.885 ± 0.088
UCK1 (UniProt Q9HA47) | 0.962 ± 0.03 | 0.967 ± 0.061 | 0.979 ± 0.055 | 1.04 ± 0.095 | 1 ± 0.069 | 0.956 ± 0.12
MOV10 (UniProt Q9HCE1) | 1.12 ± 0.092 | 1.05 ± 0.018 | 1.08 ± 0.02 | 1.04 ± 0.018 | 1.18 ± 0.05 | 1.18 ± 0.087
GORASP2 (UniProt Q9H8Y8) | 0.909 ± 0.053 | 0.906 ± 0.011 | 0.911 ± 0.016 | 0.919 ± 0.017 | 0.885 ± 0.0096 | 0.877 ± 0.022
PTPN23 (UniProt Q9H3S7) | 1.03 ± 0.045 | 1.03 ± 0.012 | 1.03 ± 0.014 | 0.981 ± 0.051 | 1 ± 0.026 | 1.01 ± 0.024
SCPEP1 (UniProt Q9HB40) | 0.9871 ± 0.0082 | 0.945 ± 0.022 | 0.9333 ± 0.0072 | 0.937 ± 0.024 | 0.924 ± 0.012 | 0.878 ± 0.057
UniProt Q9C0D2 and related entries | 0.927 ± 0.027 | 0.913 ± 0.055 | 0.906 ± 0.035 | 1.01 ± 0.022 | 0.956 ± 0.02 | 0.967 ± 0.033
UniProt Q9H0V9 and related entries | 1.02 ± 0.16 | 1 ± 0.11 | 0.992 ± 0.11 | 0.92 ± 0.17 | 1.01 ± 0.13 | 0.977 ± 0.076
UniProt Q9H0W9 and related entries | 0.99 ± 0.043 | 0.979 ± 0.019 | 0.981 ± 0.035 | 0.995 ± 0.044 | 0.971 ± 0.033 | 0.965 ± 0.05
AZI2 (UniProt Q9H6S1) | 1.01 ± 0.12 | 0.99 ± 0.04 | 0.967 ± 0.065 | 0.96 ± 0.029 | 0.958 ± 0.14 | 0.92 ± 0.14
NMRAL1 (UniProt Q9HBL8) | 0.997 ± 0.026 | 0.976 ± 0.034 | 0.944 ± 0.035 | 0.952 ± 0.048 | 0.96 ± 0.059 | 0.946 ± 0.029
TNKS1BP1 (UniProt Q9C0C2) | 1.08 ± 0.091 | 1.08 ± 0.071 | 1.09 ± 0.063 | 1.15 ± 0.14 | 1.08 ± 0.082 | 1.12 ± 0.089
UniProt Q9H8E8 and related entries | 0.99 ± 0.11 | 0.911 ± 0.1 | 0.911 ± 0.085 | 0.922 ± 0.095 | 0.885 ± 0.083 | 0.951 ± 0.078
UniProt Q9HD47 and related entries | 1.02 ± 0.022 | 0.973 ± 0.033 | 1.05 ± 0.052 | 0.949 ± 0.096 | 1.03 ± 0.069 | 1.03 ± 0.12
PPCS (UniProt Q9HAB8) | 0.956 ± 0.057 | 0.974 ± 0.022 | 0.941 ± 0.026 | 0.919 ± 0.097 | 0.933 ± 0.012 | 0.944 ± 0.019
GPN1 (UniProt Q9HCN4) | 0.984 ± 0.053 | 1.01 ± 0.053 | 0.989 ± 0.072 | 0.969 ± 0.069 | 0.972 ± 0.047 | 1.01 ± 0.044
UniProt Q9H7H0 and related entries | 0.997 ± 0.035 | 0.982 ± 0.086 | 1.1 ± 0.12 | 1.05 ± 0.15 | 1.07 ± 0.14 | 0.967 ± 0.064
UniProt Q9H4A4 and related entries | 1.07 ± 0.026 | 1.02 ± 0.035 | 1.01 ± 0.05 | 0.973 ± 0.074 | 1.04 ± 0.027 | 0.994 ± 0.032
PTGES2 (UniProt Q9H7Z7) | 0.937 ± 0.09 | 0.946 ± 0.064 | 0.933 ± 0.064 | 0.892 ± 0.1 | 0.909 ± 0.034 | 0.921 ± 0.043
UniProt Q9HCC0-2 | 1.03 ± 0.02 | 0.9984 ± 0.0071 | 1.01 ± 0.016 | 0.994 ± 0.024 | 0.999 ± 0.048 | 0.995 ± 0.039
UniProt Q9H8M2 and related entries | 1.16 ± 0.24 | 1.12 ± 0.32 | 1.27 ± 0.36 | 1.25 ± 0.33 | 1.28 ± 0.41 | 1.39 ± 0.45
UniProt Q9H7D7-2 | 1.04 ± 0.027 | 0.975 ± 0.045 | 0.958 ± 0.065 | 0.937 ± 0.13 | 0.99 ± 0.12 | 0.967 ± 0.092

Reprinted from above (two entries):
Target | NP40-soluble protein abundance (concentration: 1mM) | NP40-soluble protein abundance (concentration: 2mM) | NP40-soluble protein abundance (concentration: 4mM) | NP40-soluble protein abundance (concentration: 6mM) | NP40-soluble protein abundance (concentration: 8mM) | NP40-soluble protein abundance (concentration: 10mM)
UniProt Q9HCE0 and related entries | 1.04 ± 0.09 | 0.953 ± 0.074 | 1.06 ± 0.019 | 0.984 ± 0.05 | 1.02 ± 0.064 | 0.986 ± 0.12
UniProt Q9NP72 and related entries | 0.99 ± 0.047 | 1.01 ± 0.047 | 0.973 ± 0.04 | 0.952 ± 0.094 | 0.981 ± 0.044 | 0.974 ± 0.06
